Results are given in words; binding and its absence hold for the method and conditions named. For some of these results: In cells and extracts the contact can be indirect. Some results given as binding are weak or reduced against the parent protein; the word gives no strength. For some of these results: Sequences can lack the tags named with a protein. Blank lines part the entries; values can stand above or below the binder they belong to.
What was measured:
[1] = molecular target: HA-FASN, fatty acid synthase (UniProt P49327); experiment: co-IP; FLAG-TRIM56 and HA-FASN in HEK293T cells, IP (Figure 5A, B); FASstatin treatment increased the interaction (Figure 8M)
FASN of the SPR analysis = FASN of the SPR analysis (UniProt P49327); experiment: SPR; SPR analysis of the FASN-TRIM56 direct interaction (Figure 5F); both purified
[2] = molecular target: FASN of the GST-pulldown assay (UniProt P49327); experiment: pull-down; GST-pulldown assay in HEK293T cells (Figure 5D, E); which partner carried GST is not told
[3] = molecular target: HA-FASN, fatty acid synthase (UniProt P49327); experiment: co-IP; HA-FASN expressed in HEK293T cells, endogenous TRIM56 (Figure 5C)

Sequences of proteins named here, by UniProt entry; tags and fusion partners are left off.
UniProt P49327: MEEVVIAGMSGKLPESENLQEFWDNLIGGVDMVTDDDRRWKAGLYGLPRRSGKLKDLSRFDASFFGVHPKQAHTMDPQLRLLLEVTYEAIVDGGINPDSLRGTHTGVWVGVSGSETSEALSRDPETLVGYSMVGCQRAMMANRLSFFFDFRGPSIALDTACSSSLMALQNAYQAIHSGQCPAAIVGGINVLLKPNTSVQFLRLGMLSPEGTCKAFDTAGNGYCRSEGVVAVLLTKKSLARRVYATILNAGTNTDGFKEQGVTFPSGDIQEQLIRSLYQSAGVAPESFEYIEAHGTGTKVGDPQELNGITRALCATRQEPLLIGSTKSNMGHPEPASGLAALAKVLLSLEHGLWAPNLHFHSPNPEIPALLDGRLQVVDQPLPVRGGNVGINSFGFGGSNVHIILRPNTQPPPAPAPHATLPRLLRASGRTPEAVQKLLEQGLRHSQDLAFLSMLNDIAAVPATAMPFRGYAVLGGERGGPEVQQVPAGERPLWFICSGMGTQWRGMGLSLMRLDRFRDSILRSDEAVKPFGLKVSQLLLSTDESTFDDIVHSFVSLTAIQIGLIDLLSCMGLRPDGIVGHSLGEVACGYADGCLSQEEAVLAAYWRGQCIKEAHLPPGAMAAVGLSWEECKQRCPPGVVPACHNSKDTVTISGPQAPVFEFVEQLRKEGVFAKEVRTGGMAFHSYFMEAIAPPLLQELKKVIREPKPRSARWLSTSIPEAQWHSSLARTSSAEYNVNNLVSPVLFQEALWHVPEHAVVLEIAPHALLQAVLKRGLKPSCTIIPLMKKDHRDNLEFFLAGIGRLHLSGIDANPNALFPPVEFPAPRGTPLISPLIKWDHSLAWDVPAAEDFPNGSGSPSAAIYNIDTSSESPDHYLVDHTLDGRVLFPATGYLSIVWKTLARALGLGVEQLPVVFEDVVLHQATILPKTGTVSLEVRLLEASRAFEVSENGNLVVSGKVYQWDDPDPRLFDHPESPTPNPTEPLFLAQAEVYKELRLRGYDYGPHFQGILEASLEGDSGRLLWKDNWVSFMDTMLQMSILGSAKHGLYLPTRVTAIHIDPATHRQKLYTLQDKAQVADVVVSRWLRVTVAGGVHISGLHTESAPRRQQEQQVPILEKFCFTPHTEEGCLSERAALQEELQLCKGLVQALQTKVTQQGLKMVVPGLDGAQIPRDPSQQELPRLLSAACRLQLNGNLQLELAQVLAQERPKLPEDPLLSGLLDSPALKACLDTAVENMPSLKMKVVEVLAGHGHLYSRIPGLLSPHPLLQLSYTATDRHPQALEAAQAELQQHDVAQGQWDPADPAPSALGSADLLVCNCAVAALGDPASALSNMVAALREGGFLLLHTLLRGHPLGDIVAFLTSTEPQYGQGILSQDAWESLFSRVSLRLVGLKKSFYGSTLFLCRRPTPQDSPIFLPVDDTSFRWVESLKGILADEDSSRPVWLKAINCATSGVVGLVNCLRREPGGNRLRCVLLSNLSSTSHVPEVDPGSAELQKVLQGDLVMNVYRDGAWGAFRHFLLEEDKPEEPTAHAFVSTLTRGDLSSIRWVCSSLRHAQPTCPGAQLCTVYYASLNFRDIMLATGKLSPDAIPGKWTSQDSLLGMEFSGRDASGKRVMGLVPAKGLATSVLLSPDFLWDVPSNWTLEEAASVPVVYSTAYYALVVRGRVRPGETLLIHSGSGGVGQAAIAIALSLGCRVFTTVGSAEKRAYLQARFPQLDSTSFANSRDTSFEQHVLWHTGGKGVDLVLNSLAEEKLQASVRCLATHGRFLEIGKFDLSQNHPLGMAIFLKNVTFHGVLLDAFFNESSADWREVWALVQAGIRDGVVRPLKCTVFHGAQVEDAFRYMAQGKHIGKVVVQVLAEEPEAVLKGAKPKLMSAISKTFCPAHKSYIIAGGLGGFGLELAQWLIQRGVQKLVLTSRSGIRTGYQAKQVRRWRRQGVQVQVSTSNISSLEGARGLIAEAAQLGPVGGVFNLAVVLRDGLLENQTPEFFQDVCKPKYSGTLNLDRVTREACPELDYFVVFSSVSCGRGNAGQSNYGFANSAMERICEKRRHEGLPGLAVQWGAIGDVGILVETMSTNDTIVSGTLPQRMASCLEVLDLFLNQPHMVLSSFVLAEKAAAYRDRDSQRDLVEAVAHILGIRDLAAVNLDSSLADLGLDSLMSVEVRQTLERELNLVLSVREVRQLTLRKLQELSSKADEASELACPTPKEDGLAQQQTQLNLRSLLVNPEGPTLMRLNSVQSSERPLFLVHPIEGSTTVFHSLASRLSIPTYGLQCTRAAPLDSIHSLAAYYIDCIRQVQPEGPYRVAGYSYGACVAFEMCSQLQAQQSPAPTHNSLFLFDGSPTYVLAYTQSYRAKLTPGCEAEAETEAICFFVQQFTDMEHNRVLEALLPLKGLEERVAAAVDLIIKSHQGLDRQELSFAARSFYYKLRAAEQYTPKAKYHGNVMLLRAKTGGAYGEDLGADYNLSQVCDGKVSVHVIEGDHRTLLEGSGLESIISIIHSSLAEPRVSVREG

B2: TRIM56 of the SPR analysis (enzyme, UniProt Q9BRZ2 1-755)
chain: MVSHGSSPSLLEALSSDFLACKICLEQLRAPKTLPCLHTYCQDCLAQLADGGRVRCPECRETVPVPPEGVASFKTNFFVNGLLDLVKARACGDLRAGKPACALCPLVGGTSTGGPATARCLDCADDLCQACADGHRCTRQTHTHRVVDLVGYRAGWYDEEARERQAAQCPQHPGEALRFLCQPCSQLLCRECRLDPHLDHPCLPLAEAVRARRPGLEGLLAGVDNNLVELEAARRVEKEALARLREQAARVGTQVEEAAEGVLRALLAQKQEVLGQLRAHVEAAEEAARERLAELEGREQVARAAAAFARRVLSLGREAEILSLEGAIAQRLRQLQGCPWAPGPAPCLLPQLELHPGLLDKNCHLLRLSFEEQQPQKDGGKDGAGTQGGEESQSRREDEPKTERQGGVQPQAGDGAQTPKEEKAQTTREEGAQTLEEDRAQTPHEDGGPQPHRGGRPNKKKKFKGRLKSISREPSPALGPNLDGSGLLPRPIFYCSFPTRMPGDKRSPRITGLCPFGPREILVADEQNRALKRFSLNGDYKGTVPVPEGCSPCSVAALQSAVAFSASARLYLINPNGEVQWRRALSLSQASHAVAALPSGDRVAVSVAGHVEVYNMEGSLATRFIPGGKASRGLRALVFLTTSPQGHFVGSDWQQNSVVICDGLGQVVGEYKGPGLHGCQPGSVSVDKKGYIFLTLREVNKVVILDPKGSLLGDFLTAYHGLEKPRVTTMVDGRYLVVSLSNGTIHIFRVRSPDS
binding (FASN of the SPR analysis): binds

B3: TRIM56 of the GST-pulldown assay (enzyme, UniProt Q9BRZ2 1-755)
chain: B2 chain
binding [2]: binds

Next, values leading:

binding [1]: binds
B1: FLAG-TRIM56 (full-length), tripartite motif 56 (enzyme, UniProt Q9BRZ2 1-755)
chain: B2 chain

binding [3]: binds
B4: endogenous TRIM56 (enzyme, UniProt Q9BRZ2 1-755)
chain: B2 chain

Source: paper PMC10904058
